Measurements reported in paper PMC9636422.
No constants are given. Whether binding was seen depends on the method and setting. In cells and extracts the contact can be indirect. Here binding means that the protein was enriched with, or labelled near, the bait; the list need not be complete.

Protein sequences, listed by entry. Tags and fused reporters are not part of them. Lines headed by an entry give the natural chain unless they say otherwise; changes in a name come on top. Chains listed by the source or under a name are the forms on record and can include a tag or linker.
UniProt O14977: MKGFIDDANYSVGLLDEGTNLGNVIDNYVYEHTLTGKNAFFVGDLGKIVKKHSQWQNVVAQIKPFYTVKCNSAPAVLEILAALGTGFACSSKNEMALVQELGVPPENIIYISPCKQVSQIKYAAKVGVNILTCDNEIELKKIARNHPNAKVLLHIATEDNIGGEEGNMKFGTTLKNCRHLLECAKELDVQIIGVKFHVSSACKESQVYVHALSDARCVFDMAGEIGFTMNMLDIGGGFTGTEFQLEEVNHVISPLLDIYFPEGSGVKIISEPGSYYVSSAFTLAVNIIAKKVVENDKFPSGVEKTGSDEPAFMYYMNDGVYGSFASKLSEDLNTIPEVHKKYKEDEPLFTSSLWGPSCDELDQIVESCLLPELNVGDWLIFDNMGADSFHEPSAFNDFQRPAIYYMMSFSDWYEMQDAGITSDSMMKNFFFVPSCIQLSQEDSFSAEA
FLAG-tagged edited AZIN1 (Ser367Gly) (O14977, form named): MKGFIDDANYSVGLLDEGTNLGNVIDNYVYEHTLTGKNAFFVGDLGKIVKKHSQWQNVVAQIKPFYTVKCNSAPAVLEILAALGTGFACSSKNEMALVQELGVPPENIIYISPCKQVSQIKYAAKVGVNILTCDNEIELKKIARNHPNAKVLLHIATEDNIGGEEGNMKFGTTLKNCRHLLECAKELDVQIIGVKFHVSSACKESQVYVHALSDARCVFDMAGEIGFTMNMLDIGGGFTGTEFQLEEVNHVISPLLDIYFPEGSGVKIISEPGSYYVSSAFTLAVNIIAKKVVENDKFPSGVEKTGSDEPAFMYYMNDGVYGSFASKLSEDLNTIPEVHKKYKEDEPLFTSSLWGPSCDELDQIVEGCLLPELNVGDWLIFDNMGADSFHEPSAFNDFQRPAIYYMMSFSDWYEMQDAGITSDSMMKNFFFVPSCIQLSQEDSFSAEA
UniProt P35579: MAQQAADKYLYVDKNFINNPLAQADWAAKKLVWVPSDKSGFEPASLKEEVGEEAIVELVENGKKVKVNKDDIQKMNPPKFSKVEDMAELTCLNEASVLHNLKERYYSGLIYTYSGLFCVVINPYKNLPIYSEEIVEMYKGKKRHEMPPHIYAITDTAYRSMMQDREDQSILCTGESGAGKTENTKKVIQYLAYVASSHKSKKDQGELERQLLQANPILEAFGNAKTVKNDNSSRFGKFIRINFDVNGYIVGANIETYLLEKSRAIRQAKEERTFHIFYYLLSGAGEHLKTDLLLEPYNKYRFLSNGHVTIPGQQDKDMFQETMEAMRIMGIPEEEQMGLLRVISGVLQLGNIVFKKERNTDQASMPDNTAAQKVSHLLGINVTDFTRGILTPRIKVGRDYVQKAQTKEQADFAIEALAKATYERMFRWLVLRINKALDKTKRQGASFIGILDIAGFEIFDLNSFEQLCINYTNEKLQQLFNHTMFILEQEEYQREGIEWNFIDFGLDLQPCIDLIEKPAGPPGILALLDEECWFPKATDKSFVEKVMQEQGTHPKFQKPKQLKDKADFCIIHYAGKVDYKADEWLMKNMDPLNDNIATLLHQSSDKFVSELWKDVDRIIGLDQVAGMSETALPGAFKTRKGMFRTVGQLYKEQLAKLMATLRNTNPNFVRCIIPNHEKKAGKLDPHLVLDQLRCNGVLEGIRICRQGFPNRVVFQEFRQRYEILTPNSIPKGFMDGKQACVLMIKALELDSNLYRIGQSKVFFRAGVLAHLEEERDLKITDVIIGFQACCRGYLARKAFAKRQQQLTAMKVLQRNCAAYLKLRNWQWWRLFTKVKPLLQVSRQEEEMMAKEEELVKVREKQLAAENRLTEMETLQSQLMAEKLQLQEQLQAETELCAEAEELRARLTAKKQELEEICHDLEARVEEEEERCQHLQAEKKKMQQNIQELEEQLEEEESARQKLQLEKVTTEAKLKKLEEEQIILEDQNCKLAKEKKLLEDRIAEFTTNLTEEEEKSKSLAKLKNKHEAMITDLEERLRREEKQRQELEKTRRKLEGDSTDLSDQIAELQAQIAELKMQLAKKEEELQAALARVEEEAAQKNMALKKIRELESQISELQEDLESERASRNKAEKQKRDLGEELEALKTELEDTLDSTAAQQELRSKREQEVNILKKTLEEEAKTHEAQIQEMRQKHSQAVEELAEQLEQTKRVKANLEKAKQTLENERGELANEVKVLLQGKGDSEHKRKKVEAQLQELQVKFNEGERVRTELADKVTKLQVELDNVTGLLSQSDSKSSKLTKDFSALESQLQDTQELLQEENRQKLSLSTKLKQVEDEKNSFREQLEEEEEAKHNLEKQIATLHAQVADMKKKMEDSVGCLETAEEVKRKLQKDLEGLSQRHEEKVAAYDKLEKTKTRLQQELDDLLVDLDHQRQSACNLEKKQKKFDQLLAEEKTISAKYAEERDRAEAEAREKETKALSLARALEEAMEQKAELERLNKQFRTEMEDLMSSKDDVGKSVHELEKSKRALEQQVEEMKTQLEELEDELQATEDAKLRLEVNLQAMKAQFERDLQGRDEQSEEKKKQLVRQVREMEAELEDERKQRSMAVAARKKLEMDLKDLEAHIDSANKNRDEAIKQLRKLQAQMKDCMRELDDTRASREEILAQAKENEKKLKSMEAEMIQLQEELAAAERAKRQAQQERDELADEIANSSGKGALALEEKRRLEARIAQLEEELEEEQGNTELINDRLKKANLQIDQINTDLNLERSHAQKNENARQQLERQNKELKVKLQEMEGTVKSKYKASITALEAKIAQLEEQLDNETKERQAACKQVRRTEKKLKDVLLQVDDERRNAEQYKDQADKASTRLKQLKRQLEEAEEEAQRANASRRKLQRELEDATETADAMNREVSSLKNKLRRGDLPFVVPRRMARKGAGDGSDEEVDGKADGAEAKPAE

Target: FLAG-tagged edited AZIN1 (Ser367Gly) (human) (UniProt O14977)
Assay: affinity purification with mass spectrometry; HEK293 cells transfected with FLAG-wtAZIN1 or FLAG-edAZIN1; anti-FLAG immunoprecipitation, gel electrophoresis, Coomassie-stained bands analysed by LC-MS/MS; IgG as control

myosin-9 (from UniProt P35579 1-1960)
binding: binds
